Source: PubChem BioAssay AID1259405 (NCATS, 2018)
The whole screen tested about 50,000 reagents; below is a part drawn at random. About 4,000 of them (8%) count as active. 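Mouse siRNA library applied to hamster cells; one well for each siRNA.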 The numbers tell different reagents against one gene apart. Reagent sequences are not shown.

- Assay: 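Knock-downs that lift recombinant protein yield in hamster ovary cells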 (primary screen)
- Cell system: Chinese hamster CHO-K1 ovary cells with stable secreted eGFP expression
- Knock-down reagent: single siRNA against mouse genes, 0.8 pmol siRNA per well (2 µl of 400 nM stock)
- Duration: 3 days
- Measured: 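Percent of the per-plate non-targeting control median for intracellular GFP per well by laser scanning cytometry and for cell viability by ATP luminescence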
- Direction: GFP, % of control: higher = more GFP per well, higher productivity; viability (ATP), % of control: higher = more viable cells (more ATP)
- Active means: 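a knock-down is called active if GFP reaches 120% or more of non-targeting control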

gene	reagent	GFP, % of control	viability (ATP), % of control	activity call
Cntn3 (contactin 3)	1	88.7	88.2	inactive
Cntn3 (contactin 3)	2	69.5	62.9	inactive
Cntn3 (contactin 3)	3	72.9	89.7	inactive
Mak16 (MAK16 homolog)	1	78.9	45.4	inactive
Mak16 (MAK16 homolog)	2	60.1	60.6	inactive
Mak16 (MAK16 homolog)	3	73.2	64.4	inactive
Ggcx (gamma-glutamyl carboxylase)	1	63.5	79	inactive
Ggcx (gamma-glutamyl carboxylase)	2	43.2	65	inactive
Ggcx (gamma-glutamyl carboxylase)	3	53.5	65	inactive
5930403N24Rik (RIKEN cDNA 5930403N24 gene)	1	139	63.7	active
5930403N24Rik (RIKEN cDNA 5930403N24 gene)	2	72.4	82.1	inactive
5930403N24Rik (RIKEN cDNA 5930403N24 gene)	3	78.3	88.8	inactive
Ddx46 (DEAD box helicase 46)	1	71.4	59.2	inactive
Ddx46 (DEAD box helicase 46)	2	72.3	61.8	inactive
Ddx46 (DEAD box helicase 46)	3	62.1	57.9	inactive
Ncr1 (natural cytotoxicity triggering receptor 1)	1	95	66.5	inactive
Ncr1 (natural cytotoxicity triggering receptor 1)	2	42.2	58.3	inactive
Ncr1 (natural cytotoxicity triggering receptor 1)	3	96.9	92.3	inactive
Pknox2 (Pbx/knotted 1 homeobox 2)	1	46.8	68.9	inactive
Pknox2 (Pbx/knotted 1 homeobox 2)	2	62.5	74.5	inactive
Pknox2 (Pbx/knotted 1 homeobox 2)	3	115	93.5	inactive
Cartpt (CART prepropeptide)	1	80.6	81.6	inactive
Cartpt (CART prepropeptide)	2	72.1	54.3	inactive
Cartpt (CART prepropeptide)	3	90.2	113	inactive
Hcst (hematopoietic cell signal transducer)	1	55.6	75.3	inactive
Hcst (hematopoietic cell signal transducer)	2	81.6	106	inactive
Hcst (hematopoietic cell signal transducer)	3	146	86.1	active
Krtap6-1 (keratin associated protein 6-1)	1	52.6	75.8	inactive
Krtap6-1 (keratin associated protein 6-1)	2	125	75.1	active
Krtap6-1 (keratin associated protein 6-1)	3	74.7	67.4	inactive
Lilrb4b	1	65.8	82.7	inactive
Lilrb4b	2	115	94.4	inactive
Lilrb4b	3	85.7	90.6	inactive
Khdrbs1	1	59.6	96.5	inactive
Khdrbs1	2	68.8	61.7	inactive
Khdrbs1	3	57.2	62	inactive
Cxcr5 (C-X-C motif chemokine receptor 5)	1	62	73.4	inactive
Cxcr5 (C-X-C motif chemokine receptor 5)	2	70.8	51.4	inactive
Cxcr5 (C-X-C motif chemokine receptor 5)	3	149	88.1	active
Eef2 (eukaryotic translation elongation factor 2)	1	82.6	66.6	inactive
Eef2 (eukaryotic translation elongation factor 2)	2	71.7	67.8	inactive
Eef2 (eukaryotic translation elongation factor 2)	3	76.9	67.4	inactive
Gm5105 (predicted gene 5105)	1	71.5	75.3	inactive
Gm5105 (predicted gene 5105)	2	78.1	81	inactive
Gm5105 (predicted gene 5105)	3	85.9	97.3	inactive
Nphs2 (nephrosis 2, podocin)	1	72.4	63.6	inactive
Nphs2 (nephrosis 2, podocin)	2	67.5	59.5	inactive
Chd4 (chromodomain helicase DNA binding protein 4)	1	335	98.2	active
Chd4 (chromodomain helicase DNA binding protein 4)	2	107	81.2	inactive
Chd4 (chromodomain helicase DNA binding protein 4)	3	206	74.8	active
Chd4 (chromodomain helicase DNA binding protein 4)	4	273	75	active
Chd4 (chromodomain helicase DNA binding protein 4)	5	98.4	93.5	inactive
Chd4 (chromodomain helicase DNA binding protein 4)	6	243	77.1	active
Snai3 (snail family zinc finger 3)	1	103	67	inactive
Snai3 (snail family zinc finger 3)	2	61.4	60.2	inactive
Snai3 (snail family zinc finger 3)	3	96.6	76.5	inactive

The list goes on, starting with the last 9 of the part before.
gene	reagent	GFP, % of control	viability (ATP), % of control	activity call
Chd4 (chromodomain helicase DNA binding protein 4)	1	335	98.2	active
Chd4 (chromodomain helicase DNA binding protein 4)	2	107	81.2	inactive
Chd4 (chromodomain helicase DNA binding protein 4)	3	206	74.8	active
Chd4 (chromodomain helicase DNA binding protein 4)	4	273	75	active
Chd4 (chromodomain helicase DNA binding protein 4)	5	98.4	93.5	inactive
Chd4 (chromodomain helicase DNA binding protein 4)	6	243	77.1	active
Snai3 (snail family zinc finger 3)	1	103	67	inactive
Snai3 (snail family zinc finger 3)	2	61.4	60.2	inactive
Snai3 (snail family zinc finger 3)	3	96.6	76.5	inactive
Crebrf (CREB3 regulatory factor)	1	42	36	inactive
Crebrf (CREB3 regulatory factor)	2	30.6	65.6	inactive
Crebrf (CREB3 regulatory factor)	3	62.4	69.9	inactive
Fnbp1 (formin binding protein 1)	1	111	97.8	inactive
Fnbp1 (formin binding protein 1)	2	138	91.2	active
Prkaa2 (protein kinase, AMP-activated, alpha 2 catalytic subunit)	1	124	64.1	active
Ceacam19 (CEA cell adhesion molecule 19)	1	89.2	70.9	inactive
Ceacam19 (CEA cell adhesion molecule 19)	2	119	75.5	inactive
Ceacam19 (CEA cell adhesion molecule 19)	3	112	107	inactive
Eif5a (eukaryotic translation initiation factor 5A)	1	95.1	91.3	inactive
Eif5a (eukaryotic translation initiation factor 5A)	2	65.2	64.9	inactive
Eif5a (eukaryotic translation initiation factor 5A)	3	81.1	80.7	inactive
Trim69 (tripartite motif-containing 69)	1	69.3	86.4	inactive
Trim69 (tripartite motif-containing 69)	2	57.7	67.8	inactive
Trim69 (tripartite motif-containing 69)	3	129	58	active
Megf10 (multiple EGF-like-domains 10)	1	97.1	106	inactive
Megf10 (multiple EGF-like-domains 10)	2	71.6	60.7	inactive
Megf10 (multiple EGF-like-domains 10)	3	92.9	84.8	inactive
Prm3 (protamine 3)	1	155	87.3	active
Prm3 (protamine 3)	2	90.7	67.5	inactive
Prm3 (protamine 3)	3	98.1	64	inactive
Col5a1 (collagen, type V, alpha 1)	1	84	110	inactive
Col5a1 (collagen, type V, alpha 1)	2	75.2	79.6	inactive
Slc9a9	1	71.6	91.4	inactive
Slc9a9	2	84.8	85.7	inactive
Slc9a9	3	66.4	66	inactive
Eif4a2 (eukaryotic translation initiation factor 4A2)	1	36.3	40.9	inactive
Eif4a2 (eukaryotic translation initiation factor 4A2)	2	27	35.6	inactive
Eif4a2 (eukaryotic translation initiation factor 4A2)	3	106	105	inactive
